{"source": "the supplement of paper PMC12578635", "note": "± gives the standard deviation of the averaged measurements. Some of the results follow. Most values come without repeats; read them as rough."}
{"test_system": "RAW 264.7 macrophages infected with S. aureus JE2-lux", "experiment": "host macrophage viability (CellTiter-Fluor) relative to DMSO vehicle; higher = more viable host cells", "conditions": "10 µM; treatment time 4 h; gentamicin 50 µg/ml", "units": {"host macrophage viability": "%"}}
{"smiles": "COc1ccc(C(=O)NN2C(=O)c3ccccc3C2=O)cc1", "host macrophage viability": 114}
{"smiles": "COc1cccc(NC(=O)CSc2nc(-c3ccccc3)no2)c1", "host macrophage viability": 121}
{"smiles": "COc1cc2c(cc1OC)C(c1cc3cc(C)ccc3[nH]c1=O)N(C(=O)Nc1ccccc1)CC2", "note": "(configuration not stated)", "host macrophage viability": 106}
{"smiles": "COc1ccc(C2C3=C(CCCC3=O)Nc3[nH]c(=O)[nH]c(=O)c32)cc1", "note": "(configuration not stated)", "host macrophage viability": 128}
{"smiles": "CCOc1ccc(-n2c(C)c(C)n3c4c(=O)[nH]c(=O)n(C)c4nc23)cc1", "host macrophage viability": 118}
{"smiles": "O=C(Nc1ccccc1Br)c1csc2c1CCCC2", "host macrophage viability": "102 ± 8.9"}
{"smiles": "Cc1ccc(-n2nc3ccc(NC(=O)C(C)NS(=O)(=O)c4ccc(C)cc4)cc3n2)cc1", "note": "(configuration not stated)", "host macrophage viability": 109}
{"smiles": "COC(=O)c1ccccc1NC(=O)Nc1c(-c2ccncc2)[nH]c2c(Cl)cccc12", "host macrophage viability": 87.1}
{"smiles": "NC(=O)c1cc2ccccc2o/c1=N\\c1ccc(Cl)cc1Cl", "host macrophage viability": 94.8}
{"smiles": "CCS(=O)(=O)c1cccc(C(=O)Nc2nc3c(C)ccc(Cl)c3s2)c1", "host macrophage viability": 145}
{"smiles": "CN1C(=O)CC(Sc2ncccc2C(=O)O)C1=O", "note": "(configuration not stated)", "host macrophage viability": 115}
{"smiles": "O=C(Cn1cnc2c(nnn2-c2cccc(F)c2)c1=O)N1CCN(c2ccccc2)CC1", "host macrophage viability": 117}
{"smiles": "Cc1ccc(SCCCC(=O)Nc2cccc3c2C(=O)NC3=O)cc1", "host macrophage viability": 95.9}
{"smiles": "COc1ccc(-c2csc(NC(=O)CSc3nncn3N)n2)cc1", "host macrophage viability": 114}
{"smiles": "O=C(NC1CCCCC1)C(c1ccc(O)cc1)N(C(=O)c1cnccn1)c1cccc(F)c1", "note": "(configuration not stated)", "host macrophage viability": 103}
{"smiles": "CCc1ccc2c(c1)cc(CN(C(=S)Nc1cccc(C)c1C)C1CC1)c1nnnn12", "host macrophage viability": 114}
{"smiles": "COc1cccc(-c2cc(C(F)(F)F)n3nc(C(=O)N4CCCC4c4cc(C)on4)cc3n2)c1", "note": "(configuration not stated)", "host macrophage viability": 112}
{"smiles": "COc1ccccc1NC(=O)CSc1nnc(-n2nc(C)cc2C)c2ccccc12", "host macrophage viability": 106}
{"smiles": "CCN1C(=O)c2cccc3c(NC(=O)c4ccc(Cl)s4)ccc1c23", "host macrophage viability": "146 ± 14"}
{"smiles": "Cc1nccn1CC(=O)N/N=C/c1ccc(O)c(O)c1", "host macrophage viability": 105}
{"smiles": "COc1ccc2[nH]cc(CCNC(=O)CN3C(=O)S/C(=C\\c4ccc(F)cc4)C3=O)c2c1", "host macrophage viability": 115}
{"smiles": "CC(=O)c1cccc(NC(=O)c2cc3cccnc3n(C)c2=O)c1", "host macrophage viability": 114}
{"smiles": "Cc1ccc(C)c(NC(=O)c2ccc(S(=O)(=O)N3CCCCC3C)cc2)c1", "note": "(configuration not stated)", "host macrophage viability": 115}
{"smiles": "CCn1c(CN2CCNCC2)nc2cc(C(=O)N(C)C)ccc21", "host macrophage viability": 129}
{"smiles": "CCOC(=O)c1ccc2cc3c(cc2c1O)OCCO3", "host macrophage viability": 113}
{"smiles": "Cc1ncc(C(=O)NC(c2ccccc2)c2cccnc2)c(C)n1", "note": "(configuration not stated)", "host macrophage viability": 116}
{"smiles": "COc1ccc(NC(=O)c2sc(C)nc2-c2ccccc2)cc1", "host macrophage viability": 107}
{"smiles": "COc1ccc(Cl)cc1Nc1nnc(C)c(=O)[nH]1", "host macrophage viability": 97.9}
{"smiles": "CC(=O)c1cccc(Nc2cc(C(F)(F)F)nc3ncnn23)c1", "host macrophage viability": 126}
{"smiles": "CC(=O)NC1(c2ccc(F)cc2)CCN(Cc2ccc3cccc(Cl)c3n2)CC1", "host macrophage viability": 109}
{"smiles": "CCc1nc(OCC(=O)NCc2ccc(OC(C)C)cc2)c2c(C)c(C)oc2n1", "host macrophage viability": 115}
{"smiles": "O=C1C=C/C(=N\\Nc2cc3c(cc2[N+](=O)[O-])OCCO3)c2ccccc21", "host macrophage viability": 111}
{"smiles": "Cc1cc(O)nc(SCc2nc3ncccn3c2Br)n1", "host macrophage viability": 117}
{"smiles": "Cc1cc(C)c2[nH]c(=O)c(CN(C(=O)Nc3ccccc3C)C3CC3)cc2c1", "host macrophage viability": 114}
{"smiles": "COc1cccc(CN2N=NC3C(=O)N(c4ccc(OC)c(OC)c4)C(=O)C32)c1", "note": "(configuration not stated)", "host macrophage viability": 118}
{"smiles": "Cc1csc(-c2csc(S(=O)(=O)N3CCc4ccccc4C3)c2)n1", "host macrophage viability": 86}
{"smiles": "Cc1ccc(NC(=O)CSc2nc3c(oc4ccccc43)c(=O)[nH]2)cc1C", "host macrophage viability": 124}
{"smiles": "Cc1cn(C2OC(COC(=O)c3ccccc3)C(O)C2O)c(=O)[nH]c1=O", "note": "(configuration not stated)", "host macrophage viability": 110}
{"smiles": "Cc1c(Cl)cccc1S(=O)(=O)N1CCN(c2cc(C)c3c(C)nn(-c4ccccc4)c3n2)CC1", "host macrophage viability": 94.7}
{"smiles": "COc1ccc(Cl)c2sc(NC(=O)CN3C(=O)c4ccccc4C3=O)nc12", "host macrophage viability": 89.2}
{"smiles": "COc1cccc(OCc2nnc(SCC(=O)Nc3cc(C)on3)n2C)c1", "host macrophage viability": 96.7}
{"smiles": "CN(C)c1ncc(C(=O)NC(c2ccccc2)c2cccnc2)cn1", "note": "(configuration not stated)", "host macrophage viability": 114}
{"smiles": "CS(=O)(=O)c1ccc(CC(=O)Nc2ccc3ncsc3c2)cc1", "host macrophage viability": 112}
{"smiles": "COc1ccc(CCNC(=O)Cc2cc(=O)[nH]c(=O)[nH]2)cc1OC", "host macrophage viability": 97.5}
{"smiles": "Cc1cc(-c2cncnc2C2CCN(C(=O)c3cn(C)nc3C)CC2)on1", "host macrophage viability": 120}
{"smiles": "COc1ccc(NC(=O)CN2C(=O)N(C)N(C)c3ncccc32)cc1OC", "host macrophage viability": 119}
{"smiles": "COc1ccc(C2=C(C)C(N3CCC(C(=O)NCCC(C)C)CC3)=NS2(=O)=O)cc1", "host macrophage viability": 129}
{"smiles": "COc1ccc(-c2cn3c(C)c(C(=O)N4CCN(Cc5ccccc5)CC4)sc3n2)cc1", "host macrophage viability": 124}
{"smiles": "Cc1cccn2c(=O)nc(SCc3ccc(F)cc3)nc12", "host macrophage viability": 114}
{"smiles": "COc1ccc(-c2cc(-c3ccccc3)nc(SCC(=O)Nc3nccs3)c2C#N)cc1", "host macrophage viability": 121}
{"smiles": "CC(c1ccccc1)N1CCn2c(nc3ccccc32)C1", "note": "(configuration not stated)", "host macrophage viability": 109}
{"smiles": "CCOc1ccccc1C1Nc2ccc(CC)cc2[C@H]2OCCC[C@@H]12", "note": "(some centres not stated)", "host macrophage viability": 106}
